Laboratory results from PMC4644952.
No constants are given. Whether binding was seen depends on the method and setting. For some of these results: A result given as binding can be weak or reduced; the word gives no strength. Sequences can lack the tags named with a protein. For some of these results: Binding seen in cells or lysates may run through a third protein.

T1: N-terminally glutathione S transferase (GST)-tagged FKBP6 (UniProt O75344)
T1 sequence: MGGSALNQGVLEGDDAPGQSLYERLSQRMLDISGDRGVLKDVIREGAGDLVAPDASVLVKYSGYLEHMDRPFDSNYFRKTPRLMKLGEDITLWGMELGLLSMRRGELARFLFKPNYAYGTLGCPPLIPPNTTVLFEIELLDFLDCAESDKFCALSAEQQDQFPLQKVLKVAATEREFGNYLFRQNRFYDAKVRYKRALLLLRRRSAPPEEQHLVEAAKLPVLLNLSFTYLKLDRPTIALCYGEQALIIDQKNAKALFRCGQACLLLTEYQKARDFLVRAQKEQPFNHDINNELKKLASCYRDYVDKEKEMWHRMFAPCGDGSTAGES

T2: FLAG-tagged FKBP6 (UniProt O75344)
T2 sequence: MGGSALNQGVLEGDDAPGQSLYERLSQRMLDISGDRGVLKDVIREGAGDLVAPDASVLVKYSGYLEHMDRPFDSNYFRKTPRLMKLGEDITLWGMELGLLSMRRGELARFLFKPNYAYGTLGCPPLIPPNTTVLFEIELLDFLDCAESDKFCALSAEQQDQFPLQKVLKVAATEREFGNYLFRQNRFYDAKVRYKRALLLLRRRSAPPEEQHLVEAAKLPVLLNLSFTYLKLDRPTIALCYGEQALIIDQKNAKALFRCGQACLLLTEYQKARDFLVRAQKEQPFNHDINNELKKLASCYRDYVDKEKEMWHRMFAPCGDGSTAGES


How the values were obtained:
[1] = target: T1, N-terminally glutathione S transferase (GST)-tagged FKBP6; test: pull-down; purified GST-FKBP6 or GST mixed with NS5A-His at an equal molar ratio, 4 °C for 2 h, glutathione Sepharose 4B beads, washed with PBS; Western blotting with anti-6x His antibody; both purified
FLAG-tagged FKBP6 = target: T2, FLAG-tagged FKBP6; test: co-IP; FLAG- and HA-tagged proteins co-expressed in 293T cells, lysed 48 h post-transfection; immunoprecipitation with anti-FLAG or anti-HA antibody, Western blotting
[2] = target: FLAG-tagged NS5A (N strain, amplified from the N replicon cell line) (hepatitis C virus genotype 1b, strain N); test: as above

| Molecule | binding [2] | further results |
| --- | --- | --- |
| C-terminally Hisx6-tagged NS5A lacking the membrane-anchoring region (domain or fragment) | – | binding [1]: binds |
| N-terminally HA-tagged NS5A region spanning from amino acid residue 1 to 125 (from UniProt Q9WMX2) (domain or fragment) | – | binding (FLAG-tagged FKBP6): binds |
| HA-tagged FKBP4 (protein, UniProt Q02790 1-459) MTAEEMKATESGAQSAPLPMEGVDISPKQDEGVLKVIKREGTGTEMPMIGDRVFVHYTGWLLDGTKFDSSLDRKDKFSFDLGKGEVIKAWDIAIATMKVGEVCHITCKPEYAYGSAGSPPKIPPNATLVFEVELFEFKGEDLTEEEDGGIIRRIQTRGEGYAKPNEGAIVEVALEGYYKDKLFDQRELRFEIGEGENLDLPYGLERAIQRMEKGEHSIVYLKPSYAFGSVGKEKFQIPPNAELKYELHLKSFEKAKESWEMNSEEKLEQSTIVKERGTVYFKEGKYKQALLQYKKIVSWLEYESSFSNEEAQKAQALRLASHLNLAMCHLKLQAFSAAIESCNKALELDSNNEKGLFRRGEAHLAVNDFELARADFQKVLQLYPNNKAAKTQLAVCQQRIRRQLAREKKLYANMFERLAEEENKAKAEASSGDHPTDTEMKEEQKSNTAGSQSQVETEA | no binding | – |
| HA-tagged FKBP5 (protein, UniProt Q13451 1-457) MTTDEGAKNNEESPTATVAEQGEDITSKKDRGVLKIVKRVGNGEETPMIGDKVYVHYKGKLSNGKKFDSSHDRNEPFVFSLGKGQVIKAWDIGVATMKKGEICHLLCKPEYAYGSAGSLPKIPSNATLFFEIELLDFKGEDLFEDGGIIRRTKRKGEGYSNPNEGATVEIHLEGRCGGRMFDCRDVAFTVGEGEDHDIPIGIDKALEKMQREEQCILYLGPRYGFGEAGKPKFGIEPNAELIYEVTLKSFEKAKESWEMDTKEKLEQAAIVKEKGTVYFKGGKYMQAVIQYGKIVSWLEMEYGLSEKESKASESFLLAAFLNLAMCYLKLREYTKAVECCDKALGLDSANEKGLYRRGEAQLLMNEFESAKGDFEKVLEVNPQNKAARLQISMCQKKAKEHNERDRRIYANMFKKFAEQDAKEEANKAMGKKTSEGVTNEKGTDSQAMEEEKPEGHV | no binding | – |
